From the supplement of paper PMC10398353
Counter-ions that a name gives are not always drawn. ± gives the standard deviation of the averaged measurements. The list shows a part of the results. Single values of this set are uncertain.

These compounds were tested on Salmonella enterica serovar Typhimurium ST313 D23580 (assay: normalized bacterial growth (OD600 20 h minus 0 h, interquartile-mean normalized) (fraction of plate interquartile mean); higher = more bacterial growth (less inhibition)). Settings: LPM (pH 5.8, low phosphate, low Mg2+), concentration: 10 µM, temperature: 37 °C.

Row | SMILES | normalized bacterial growth
1 | C/C=C(/C(=C/C)c1ccc(O)cc1)c1ccc(O)cc1 | 1.15
2 | Cc1ncc([N+](=O)[O-])n1CC(C)O (stereo not drawn) | 1.14
3 | Cc1[nH]c(=O)c(C#N)cc1-c1ccc2nccn2c1 [Olprinone hydrochloride] | 1.09
4 | CC(=O)O[C@H]1C(=O)[C@@]2(C)[C@H]([C@H](OC(=O)c3ccccc3)[C@]3(O)C[C@H](OC(=O)[C@H](O)[C@@H](NC(=O)c4ccccc4)c4ccccc4)C(C)=C1C3(C)C)[C@]1(OC(C)=O)CO[C@@H]1C[C@@H]2O | 0.766
5 | CC(=O)O[C@H]1C(=O)[C@@]2(C)[C@H]([C@H](OC(=O)c3ccccc3)[C@]3(O)C[C@H](OC(=O)[C@H](O)[C@@H](NC(=O)c4ccccc4)c4ccccc4)C(C)=C1C3(C)C)[C@]1(OC(C)=O)CO[C@@H]1C[C@@H]2O [Paclitaxel] | 0.487
6 | COc1cccc2c1C(=O)c1c(O)c3c(c(O)c1C2=O)C[C@@](O)(C(=O)CO)C[C@@H]3O[C@H]1C[C@H](N)[C@@H](O)[C@H](C)O1 | 0.674
7 | COc1ccc2c(c1)CC[C@@H]1[C@@H]2CC[C@]2(C)[C@@H](O)CC[C@@H]12 | 1.19
8 | N=C(N)c1ccc(N)cc1 [4-Aminobenzamidine dihydrochloride] | 1.1
9 | O[C@H]1[C@H](O)[C@@H](O)[C@H](O)[C@@H](O)[C@H]1O | 0.438
10 | CCCN(CCC)CCc1cccc2c1CC(=O)N2 [Ropinirole hydrochloride] | 0.487
11 | CCCN(CCC)CCc1cccc2c1CC(=O)N2 | 1.19
12 | C=C(C)[C@@H]1CC[C@]2(CO)CC[C@]3(C)[C@H](CC[C@@H]4[C@@]5(C)CC[C@H](O)C(C)(C)[C@@H]5CC[C@]43C)[C@@H]12 | 1.07 ± 0.2
13 | CCCn1c(=O)c2[nH]c(C3CCCC3)nc2n(CCC)c1=O ["8-Cyclopentyl-1,3-dipropylxanthine"] | 1.01
14 | O=C(CCNNC(=O)c1ccncc1)NCc1ccccc1 [Nialamide] | 0.978
15 | N/C(=N\C(=O)c1nc(Cl)c(N)nc1N)NCc1ccccc1 [Benzamil hydrochloride] | 0.85
16 | CCC(=O)c1ccc2c(c1)N(CCCN(C)C)c1ccccc1S2 [Propionylpromazine hydrochloride] | 0.669
17 | Cc1nc2ccccn2c(=O)c1CCN1CCC(C(=O)c2ccc(F)cc2)CC1 [Pirenperone] | 1.01
18 | CSc1nc2cc(Cl)c(Oc3cccc(Cl)c3Cl)cc2[nH]1 | 0.708
19 | CCCCC[C@H](O)/C=C/[C@H]1[C@H](O)CC(=O)[C@@H]1C/C=C\CCCC(=O)O | 0.948
20 | CO[C@@H]1[C@H](OC(=O)/C=C/C=C/C=C/C=C/C(=O)O)CC[C@]2(CO2)[C@H]1[C@@]1(C)O[C@@H]1CC=C(C)C | 0.365
21 | NC(=O)c1cnccn1 [Pyrazinecarboxamide] | 1.15
22 | CC(=O)c1ccc[nH]1 | 0.845
23 | CN1C(=O)CC[C@H]1c1cccnc1 | 1.08
24 | Cc1cc(O)c(C=O)c(O)c1C(=O)O | 1.01
25 | CC[C@@H]1C(=O)OC[C@@H]1Cc1cncn1C [Pilocarpine nitrate] | 1.16
26 | CC[C@@H]1C(=O)OC[C@@H]1Cc1cncn1C [(+)-Pilocarpine hydrochloride] | 1.09
27 | CC[C@@H]1C(=O)OC[C@@H]1Cc1cncn1C | 0.938

Reprinted at random: 3 records from the list.
Row | SMILES | normalized bacterial growth
10 | CCCN(CCC)CCc1cccc2c1CC(=O)N2 [Ropinirole hydrochloride] | 0.487
21 | NC(=O)c1cnccn1 [Pyrazinecarboxamide] | 1.15
23 | CN1C(=O)CC[C@H]1c1cccnc1 | 1.08

The list continues:

Row | SMILES | normalized bacterial growth
28 | CC(=O)N[C@H]1[C@H]([C@H](O)[C@H](O)CO)OC(O)(C(=O)O)C[C@@H]1O (mixture of isomers) | 0.956
29 | COc1cc(OC)c2c(c1Cl)O[C@@]1(C(=O)CC(=O)C[C@H]1C)C2=O | 0.887
30 | CCn1c(=O)[nH]c2cc(Cl)c(Cl)cc21 | 1.1
31 | CC(O)Cn1cnc2c1c(=O)n(C)c(=O)n2C (stereo not drawn) | 0.48
32 | N[C@@H](Cc1c[nH]c2ccccc12)C(=O)O | 1.07
33 | N[C@@H](Cc1c[nH]c2ccccc12)C(=O)O [L-Tryptophan] | 0.914
34 | O=C(OOC(=O)c1ccccc1)c1ccccc1 | 1.03
35 | Nc1cc(=O)[nH]c(N)n1 ["2,4-Diamino-6-pyrimidinone"] | 1.13
36 | NC(=O)CCCCC1CCSS1 (stereo not drawn) | 0.954
37 | NS(=O)(=O)c1cc2c(cc1C(F)(F)F)NCNS2(=O)=O | 0.757
38 | OC[C@H]1O[C@@H](n2cnc3c(N[C@H]4CCC[C@@H]4O)ncnc32)[C@H](O)[C@@H]1O | 1.43
39 | COC1(C2=NCCN2)COc2ccccc2O1 (stereo not drawn) | 0.839
40 | O=C(/C=C/c1ccc(O)cc1)c1ccc(O)cc1O [Isoliquiritigenin] | 0.816
41 | Cc1c(NC(=O)c2cccnc2)c(=O)n(-c2ccccc2)n1C | 1.18
42 | CS(=O)(=O)OCCCCOS(C)(=O)=O | 1.36
43 | OCc1c[nH]c2ccccc12 | 0.794
44 | COc1ccc(-c2coc3c(O)c(O)c(OC)cc3c2=O)cc1 | 0.912
45 | O=C(Nc1cccc(C(=O)Nc2ccc(S(=O)(=O)O)c3cc(S(=O)(=O)O)cc(S(=O)(=O)O)c23)c1)Nc1cccc(C(=O)Nc2ccc(S(=O)(=O)O)c3cc(S(=O)(=O)O)cc(S(=O)(=O)O)c23)c1 | 1.1
46 | Oc1ccc([C@H]2Oc3cc(O)cc(O)c3C[C@H]2O)cc1 | 0.82
47 | COc1cccc2c1C(=O)c1c(O)c3c(c(O)c1C2=O)C[C@@](O)(C(C)=O)C[C@@H]3O[C@H]1C[C@H](N)[C@H](O)[C@H](C)O1 | 1.33 ± 0.34
48 | COc1cccc2c1C(=O)c1c(O)c3c(c(O)c1C2=O)C[C@@](O)(C(C)=O)C[C@@H]3O[C@H]1C[C@H](N)[C@H](O)[C@H](C)O1 [Daunorubicin hydrochloride] | 1.55
49 | O=C(O[C@@H]1Cc2c(O)cc(O)cc2O[C@@H]1c1cc(O)c(=O)c2c(O)c(O)cc([C@H]3Oc4cc(O)cc(O)c4C[C@H]3OC(=O)c3cc(O)c(O)c(O)c3)c2c1)c1cc(O)c(O)c(O)c1 | 1.07
50 | Ic1ccc(N2CCN(Cc3c[nH]c4ncccc34)CC2)cc1 ["L-750,667 trihydrochloride"] | 0.335
51 | OCc1ccccc1O[C@@H]1O[C@H](CO)[C@@H](O)[C@H](O)[C@H]1O | 0.881
52 | Nc1ncnc2c1nc(Br)n2C1OC2COP(=O)(O)O[C@@H]2C1O (stereo partly drawn) [8-Bromo-cAMP sodium] | 0.928
53 | CCCCCCCCCCCCC/C=C/[C@@H](O)[C@H](CO)NC(=O)CCCCC | 1.26
